The other results are listed elsewhere or left out. Some tests of the compounds listed are not included; inactive here does not mean inactive elsewhere.
Assay: inhibitors of IL-1B driven NFkB p65 nuclear import, primary screen, imaging, HUVEC, IL-1B stimulus, high-content imaging (AID 796)
Settings: HUVEC IL-1B NFkB p65 nuclear translocation imaging; cells passing quality filter; at 2 µM; stronger effect = lower value

Row | Structure (SMILES) | cell count
1 | CC(C)N1C(=O)CC2(CCN(CCOC(=O)C(O)(c3ccccc3)c3ccccc3)CC2)C1=O | 129
2 | O=C(OC1CN2CCC1CC2)C(CO)(c1ccccc1)c1ccccc1 (stereo not drawn) | 131
3 | CN(C)c1cccc(C(=O)NCC2(N(C)C)CCCCC2)c1 | 105
